Here are results for one molecule from US20100008928A1 (Takeda / Millennium, published 2010).

The assay addresses Nectin-2ED-hFc protein (human). Briefly: ELISA, immobilized nectin-2-ED-Fc. On the technique in general: ELISA stands for enzyme-linked immunosorbent assay.

These are yes or no findings as the source states them, for the method shown. Some binding calls cover weakened binding; strength is not graded here.

B1: Nec1-554-1 SP3 (antibody, V domains shown)
VH: EVQLVESGGGLVKPGGSLRLSCAASGFTFSSYNMNWVRQAPGKGLEWVSSISSSSSYIYYADSVKGRFTISRDNAKNSLYLQMNSLRAEDTAVYYCARDYYGSGTYYLFDYWGQGTLVTVSS
VL: EIVLTQSPDFQSVTPKEKVTITCRASQSIGSSLHWYQQKPDQSPKLLIKYASQSFSGVPSRFSGSGSGTDFTLTINSLEAEDAAAYYCHQSRSLPITFGQGTRLEIK
notes: also called antibody fraction (SP3)
B1: the binding result is reported as “binds”.
